The target of the experiment is human pepsin-digested collagen type III (human) (UniProt P02461). Kind of experiment: SPR, immobilized collagen type III.

Sequences of proteins named here, by UniProt entry; tags and fusion partners are left off. A change or cut given only in a name is not applied to a line headed by its entry. Residues count along the entry.
UniProt P02461, residues 168-1196: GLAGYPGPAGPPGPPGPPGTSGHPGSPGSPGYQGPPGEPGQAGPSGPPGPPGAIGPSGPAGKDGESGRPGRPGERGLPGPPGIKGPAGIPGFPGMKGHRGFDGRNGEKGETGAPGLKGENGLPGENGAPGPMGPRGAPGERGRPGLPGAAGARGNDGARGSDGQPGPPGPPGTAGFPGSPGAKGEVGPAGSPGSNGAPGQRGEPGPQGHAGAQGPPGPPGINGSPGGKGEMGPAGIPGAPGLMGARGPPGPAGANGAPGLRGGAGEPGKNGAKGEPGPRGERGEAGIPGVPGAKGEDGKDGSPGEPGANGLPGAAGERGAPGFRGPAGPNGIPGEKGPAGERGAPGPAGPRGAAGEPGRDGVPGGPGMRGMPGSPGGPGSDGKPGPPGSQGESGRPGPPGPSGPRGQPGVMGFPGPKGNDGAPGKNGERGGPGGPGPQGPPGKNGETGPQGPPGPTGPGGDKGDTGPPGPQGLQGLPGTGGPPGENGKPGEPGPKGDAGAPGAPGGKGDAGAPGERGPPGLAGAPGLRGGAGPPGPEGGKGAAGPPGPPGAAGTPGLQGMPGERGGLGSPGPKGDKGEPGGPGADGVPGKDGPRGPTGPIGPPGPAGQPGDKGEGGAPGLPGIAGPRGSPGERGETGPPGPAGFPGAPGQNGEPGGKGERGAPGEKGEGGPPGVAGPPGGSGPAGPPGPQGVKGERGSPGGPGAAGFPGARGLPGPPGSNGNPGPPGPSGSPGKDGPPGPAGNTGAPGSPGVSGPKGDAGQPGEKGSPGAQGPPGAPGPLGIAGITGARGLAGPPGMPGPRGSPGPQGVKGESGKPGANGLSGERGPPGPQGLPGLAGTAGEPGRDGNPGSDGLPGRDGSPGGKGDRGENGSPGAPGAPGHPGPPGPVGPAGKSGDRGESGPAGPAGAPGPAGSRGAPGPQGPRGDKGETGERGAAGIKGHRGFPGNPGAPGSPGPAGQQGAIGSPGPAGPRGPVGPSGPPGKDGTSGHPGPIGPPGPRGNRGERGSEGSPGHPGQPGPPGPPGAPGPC
UniProt P04275: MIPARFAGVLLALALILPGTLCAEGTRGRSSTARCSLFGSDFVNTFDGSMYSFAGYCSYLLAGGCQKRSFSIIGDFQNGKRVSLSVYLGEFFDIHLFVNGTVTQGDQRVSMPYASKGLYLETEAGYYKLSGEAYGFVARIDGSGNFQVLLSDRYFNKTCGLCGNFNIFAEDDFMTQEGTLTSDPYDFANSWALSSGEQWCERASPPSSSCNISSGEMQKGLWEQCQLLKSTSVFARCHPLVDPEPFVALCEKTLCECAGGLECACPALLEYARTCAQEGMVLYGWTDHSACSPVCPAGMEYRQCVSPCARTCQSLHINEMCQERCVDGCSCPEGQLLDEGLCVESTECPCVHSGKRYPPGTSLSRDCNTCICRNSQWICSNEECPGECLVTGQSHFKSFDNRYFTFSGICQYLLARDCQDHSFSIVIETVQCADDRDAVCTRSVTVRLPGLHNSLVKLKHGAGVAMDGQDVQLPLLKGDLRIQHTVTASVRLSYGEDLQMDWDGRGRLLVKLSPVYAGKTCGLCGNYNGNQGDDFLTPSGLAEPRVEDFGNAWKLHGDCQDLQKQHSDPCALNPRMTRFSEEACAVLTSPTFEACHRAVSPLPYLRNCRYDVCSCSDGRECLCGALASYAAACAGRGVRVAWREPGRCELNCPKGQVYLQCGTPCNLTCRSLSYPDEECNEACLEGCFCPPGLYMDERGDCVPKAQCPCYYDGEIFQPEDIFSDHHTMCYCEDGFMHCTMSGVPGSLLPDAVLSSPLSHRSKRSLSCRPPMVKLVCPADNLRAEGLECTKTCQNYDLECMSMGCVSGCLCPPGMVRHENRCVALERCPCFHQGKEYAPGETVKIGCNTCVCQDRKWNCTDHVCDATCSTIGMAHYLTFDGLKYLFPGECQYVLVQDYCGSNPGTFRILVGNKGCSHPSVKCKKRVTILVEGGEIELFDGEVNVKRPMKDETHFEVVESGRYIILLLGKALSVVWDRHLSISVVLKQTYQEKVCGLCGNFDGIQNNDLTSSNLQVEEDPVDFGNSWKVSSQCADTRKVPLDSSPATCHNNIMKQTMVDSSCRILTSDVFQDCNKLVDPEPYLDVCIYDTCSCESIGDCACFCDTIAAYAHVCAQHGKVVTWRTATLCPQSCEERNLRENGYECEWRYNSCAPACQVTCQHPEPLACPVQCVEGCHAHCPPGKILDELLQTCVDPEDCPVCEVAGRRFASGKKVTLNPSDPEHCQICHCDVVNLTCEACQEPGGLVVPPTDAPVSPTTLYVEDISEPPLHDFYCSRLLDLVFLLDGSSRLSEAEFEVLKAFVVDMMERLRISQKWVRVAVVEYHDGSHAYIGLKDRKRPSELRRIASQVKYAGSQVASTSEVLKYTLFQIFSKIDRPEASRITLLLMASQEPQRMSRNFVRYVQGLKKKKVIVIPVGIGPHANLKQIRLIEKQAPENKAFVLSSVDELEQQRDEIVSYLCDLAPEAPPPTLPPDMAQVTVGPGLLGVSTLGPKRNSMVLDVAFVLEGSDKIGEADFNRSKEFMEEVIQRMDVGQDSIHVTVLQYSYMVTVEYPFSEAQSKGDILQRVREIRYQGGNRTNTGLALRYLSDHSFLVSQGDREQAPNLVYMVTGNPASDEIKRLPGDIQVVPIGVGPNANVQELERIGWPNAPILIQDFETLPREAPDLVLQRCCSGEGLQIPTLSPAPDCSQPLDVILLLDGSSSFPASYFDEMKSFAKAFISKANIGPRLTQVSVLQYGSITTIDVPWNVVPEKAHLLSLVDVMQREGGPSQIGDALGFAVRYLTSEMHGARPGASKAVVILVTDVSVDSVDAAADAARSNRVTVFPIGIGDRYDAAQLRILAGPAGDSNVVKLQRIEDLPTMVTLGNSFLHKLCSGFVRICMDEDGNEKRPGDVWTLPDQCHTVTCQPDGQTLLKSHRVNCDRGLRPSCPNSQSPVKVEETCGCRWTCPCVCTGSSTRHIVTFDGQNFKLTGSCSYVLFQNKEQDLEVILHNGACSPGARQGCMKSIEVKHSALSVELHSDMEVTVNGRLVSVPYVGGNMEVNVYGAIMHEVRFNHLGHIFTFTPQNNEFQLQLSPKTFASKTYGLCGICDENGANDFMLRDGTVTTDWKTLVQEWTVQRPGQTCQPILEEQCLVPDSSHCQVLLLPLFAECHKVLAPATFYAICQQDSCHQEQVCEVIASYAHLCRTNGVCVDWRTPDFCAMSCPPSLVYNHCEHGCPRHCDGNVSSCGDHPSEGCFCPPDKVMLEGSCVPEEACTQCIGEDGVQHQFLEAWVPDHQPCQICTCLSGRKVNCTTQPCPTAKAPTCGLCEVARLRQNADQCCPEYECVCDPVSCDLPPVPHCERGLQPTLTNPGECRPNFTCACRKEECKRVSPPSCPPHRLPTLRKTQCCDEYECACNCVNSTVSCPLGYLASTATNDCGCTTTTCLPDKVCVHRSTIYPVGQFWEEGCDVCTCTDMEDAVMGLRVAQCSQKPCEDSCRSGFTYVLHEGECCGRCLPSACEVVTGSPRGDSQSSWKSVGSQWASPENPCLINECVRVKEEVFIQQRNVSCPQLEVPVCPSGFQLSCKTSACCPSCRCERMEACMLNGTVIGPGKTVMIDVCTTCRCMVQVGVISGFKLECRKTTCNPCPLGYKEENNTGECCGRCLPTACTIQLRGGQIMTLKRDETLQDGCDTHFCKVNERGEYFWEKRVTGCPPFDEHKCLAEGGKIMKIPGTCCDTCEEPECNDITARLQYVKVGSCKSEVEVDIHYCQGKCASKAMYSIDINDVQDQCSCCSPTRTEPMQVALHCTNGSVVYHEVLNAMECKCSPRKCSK

We go through two substances from patent publication US20180185455A1 (OCTAPHARMA, published 2018).

These are yes or no findings as the source states them, for the method shown. Some entries that bind do so weakly or less than the wild type.

Take “fragment III (SPIII, res. 764-2128) from plasma derived Von Willebrand Factor (from UniProt P04275 764-2128)”: the binding entry is given as “binds”.
The same measure for “plasma derived full length Von Willebrand Factor (from UniProt P04275 764-2813)”: “binds”.
